Melanoma cell counts after drug treatment

Drug key:
SU6656 (400 nM): CN(C)S(=O)(=O)c1ccc2c(c1)/C(=C/c1cc3c([nH]1)CCCC3)C(=O)N2
AZD7762 (20 nM): NC(=O)Nc1cc(-c2cccc(F)c2)sc1C(=O)N[C@H]1CCCNC1
nilutamide (1000 nM): CC1(C)NC(=O)N(c2ccc([N+](=O)[O-])c(C(F)(F)F)c2)C1=O
pioglitazone (2000 nM): CCc1ccc(CCOc2ccc(CC3SC(=O)NC3=O)cc2)nc1 (stereo not given)
cisplatin (1600 nM): N.N.[Cl][Pt][Cl]
IMD-0354 (16 nM): O=C(Nc1cc(C(F)(F)F)cc(C(F)(F)F)c1)c1cc(Cl)ccc1O
enzastaurin (800 nM): Cn1cc(C2=C(c3cn(C4CCN(Cc5ccccn5)CC4)c4ccccc34)C(=O)NC2=O)c2ccccc21
GSK0660 (1000 nM): COC(=O)c1sccc1S(=O)(=O)Nc1ccc(Nc2ccccc2)cc1OC
MK-1775 (20 nM): C=CCn1c(=O)c2cnc(Nc3ccc(N4CCN(C)CC4)cc3)nc2n1-c1cccc(C(C)(C)O)n1
erlotinib (800 nM): C#Cc1cccc(Nc2ncnc3cc(OCCOC)c(OCCOC)cc23)c1
tipifarnib (10 nM): Cn1cncc1[C@@](N)(c1ccc(Cl)cc1)c1ccc2c(c1)c(-c1cccc(Cl)c1)cc(=O)n2C
nutlin-3 (100 nM): COc1ccc(C2=N[C@@H](c3ccc(Cl)cc3)[C@@H](c3ccc(Cl)cc3)N2C(=O)N2CCNC(=O)C2)c(OC(C)C)c1
vorinostat (80 nM): O=C(CCCCCCC(=O)Nc1ccccc1)NO
GW9662 (2000 nM): O=C(Nc1ccccc1)c1cc([N+](=O)[O-])ccc1Cl
PD173074 (100 nM): CCN(CC)CCCCNc1ncc2cc(-c3cc(OC)cc(OC)c3)c(NC(=O)NC(C)(C)C)nc2n1
L-779450 (200 nM): Oc1cc(-c2nc(-c3ccccc3)[nH]c2-c2ccncc2)ccc1Cl
darinaparsin (400 nM): C[As](C)SC[C@H](NC(=O)CC[C@H](N)C(=O)O)C(=O)NCC(=O)O
fingolimod (2000 nM): CCCCCCCCc1ccc(CCC(N)(CO)CO)cc1

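Human melanoma cells were exposed to a pair of drugs for 72 h in 1,536-well plates and read by automated microscopy after fixing and staining. The read-out is cell count (nuclei) in % of the DMSO control; lower values mean stronger growth inhibition or killing. Concentrations were fixed for each drug; these are the lower of two levels, a fifth of the higher. No replicate spread is given; individual values may be noisy.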
An unselected part of the screen is shown.
A dash means that no value is listed here.

| # | Drugs | A2058 | IPC-298 | G-361 | COLO 792 | LB2518-MEL | IST-MEL1 | C32 | A375 | LOX IMVI | COLO 800 | COLO 829 | MEL-HO | A101D | 501mel |
|---|---|---|---|---|---|---|---|---|---|---|---|---|---|---|---|
| 1 | MK-1775 + darinaparsin | 89.2 | - | - | - | - | - | 108 | 39.8 | - | - | - | - | 65.4 | - |
| 2 | erlotinib + SU6656 | 98.0 | - | - | - | - | - | 91.4 | 89.1 | - | - | - | - | 75.6 | - |
| 3 | PD173074 + vorinostat | 101 | 101 | 103 | 83.2 | 84.3 | 94.3 | 94.8 | 113 | 125 | 113 | 97.6 | 84.9 | 106 | 88.4 |
| 4 | L-779450 + cisplatin | 102 | - | - | - | - | - | 96.9 | - | - | - | - | - | 100 | 94.6 |
| 5 | nilutamide + cisplatin | 90.8 | - | - | - | - | - | 98.7 | 92.0 | - | - | - | - | 84.2 | - |
| 6 | enzastaurin + SU6656 | 100 | - | - | - | - | - | 85.8 | 110 | - | - | - | - | 85.7 | - |
| 7 | tipifarnib + GSK0660 | 83.1 | - | - | - | - | - | 90.0 | 75.1 | - | - | - | - | 102 | 86.3 |
| 8 | fingolimod + MK-1775 | 86.4 | - | - | - | - | - | 93.8 | 42.0 | - | - | - | - | 58.5 | - |
| 9 | IMD-0354 + AZD7762 | 104 | - | - | - | - | - | 106 | 56.9 | - | - | - | - | 85.7 | - |
| 10 | darinaparsin + nilutamide | 88.6 | - | - | - | - | - | 96.1 | 87.1 | - | - | - | - | 102 | - |
| 11 | GSK0660 + MK-1775 | - | 92.4 | 94.4 | 86.9 | 98.7 | 107 | - | - | 112 | 70.8 | 93.5 | 101 | - | - |
| 12 | fingolimod + GW9662 | 92.3 | - | - | - | - | - | 92.9 | - | - | - | - | - | 86.0 | 39.5 |
| 13 | L-779450 + SU6656 | 110 | 87.9 | 84.9 | 95.1 | 85.0 | 90.3 | 93.3 | 99.0 | 139 | 113 | 78.3 | 76.2 | 91.3 | 81.9 |
| 14 | pioglitazone + nilutamide | 97.1 | 100 | 103 | 102 | 103 | 105 | 97.8 | 76.6 | 98.5 | 96.7 | 110 | 99.7 | 91.9 | 93.5 |
| 15 | cisplatin + fingolimod | - | 104 | 95.9 | 85.3 | 103 | 87.7 | - | - | 72.4 | 131 | 82.7 | 96.9 | - | - |
| 16 | cisplatin + GW9662 | 110 | - | - | - | - | - | 103 | - | - | - | - | - | 92.5 | 78.5 |
| 17 | cisplatin + IMD-0354 | - | - | - | 99.5 | - | - | - | - | - | - | - | - | - | - |
| 18 | pioglitazone + nutlin-3 | 101 | 99.3 | 103 | 99.8 | 101 | 92.1 | 81.4 | - | 86.6 | 64.9 | 84.4 | 101 | 92.7 | 73.1 |
| 19 | tipifarnib + erlotinib | 82.5 | - | - | - | - | - | 86.5 | 85.2 | - | - | - | - | 67.9 | - |
| 20 | PD173074 + SU6656 | 99.8 | 97.8 | 88.0 | 83.9 | 91.5 | 94.0 | 89.5 | 104 | 94.1 | 96.0 | 85.3 | 102 | 76.9 | 93.1 |
| 21 | darinaparsin + enzastaurin | 88.7 | 102 | 116 | 106 | 104 | 117 | 116 | 83.2 | 121 | 79.0 | 101 | 98.7 | 101 | - |
| 22 | tipifarnib + darinaparsin | 92.2 | - | - | - | - | - | 83.5 | 74.4 | - | - | - | - | 93.1 | - |
| 23 | erlotinib + darinaparsin | - | - | - | - | - | - | 96.0 | - | - | - | - | - | - | - |
| 24 | erlotinib + PD173074 | 106 | 96.0 | 88.5 | 80.0 | 99.2 | 102 | 99.5 | 110 | 130 | 114 | 92.6 | 82.9 | 95.7 | 103 |
| 25 | enzastaurin + tipifarnib | 106 | - | - | - | - | - | 86.3 | 96.8 | - | - | - | - | 90.1 | - |
| 26 | darinaparsin + GW9662 | 127 | - | - | - | - | - | 94.0 | 87.2 | - | - | - | - | 98.9 | 91.8 |
| 27 | PD173074 + MK-1775 | - | 95.1 | 105 | 84.5 | 68.3 | 101 | - | - | 91.6 | 117 | 116 | 82.1 | - | - |
| 28 | fingolimod + AZD7762 | - | - | - | - | - | - | 94.7 | - | - | - | - | - | - | - |
| 29 | SU6656 + pioglitazone | - | 96.6 | 89.1 | 88.8 | 84.4 | 101 | - | - | 103 | 96.4 | 86.3 | 91.7 | - | - |
| 30 | MK-1775 + IMD-0354 | 102 | - | - | - | - | - | 105 | 69.7 | - | - | - | - | 78.0 | - |
| 31 | fingolimod + tipifarnib | 90.8 | - | - | - | - | - | 80.6 | 56.3 | - | - | - | - | 76.1 | - |
| 32 | vorinostat + cisplatin | 96.5 | - | - | - | - | - | 104 | 101 | - | - | - | - | 72.2 | - |
| 33 | darinaparsin + GSK0660 | 103 | - | - | - | - | - | 91.8 | 89.3 | - | - | - | - | 94.4 | 108 |
| 34 | nutlin-3 + erlotinib | 123 | 92.5 | 109 | 96.1 | 97.7 | 102 | 83.2 | 67.0 | 133 | 81.6 | 93.2 | 102 | 78.5 | - |
| 35 | erlotinib + pioglitazone | 100 | 91.5 | 89.4 | 85.5 | 92.5 | 98.2 | 100 | 91.2 | 92.9 | 99.8 | 80.1 | 73.1 | 98.7 | 99.9 |
| 36 | AZD7762 + tipifarnib | 101 | - | - | - | - | - | 93.1 | 38.9 | - | - | - | - | 88.5 | - |
| 37 | nilutamide + IMD-0354 | 97.2 | - | - | - | - | - | 101 | 104 | - | - | - | - | 104 | - |
| 38 | darinaparsin + cisplatin | 93.4 | 97.0 | 91.5 | 97.3 | 107 | 94.0 | 115 | 88.8 | 69.0 | 100 | 95.1 | 91.8 | 102 | - |
| 39 | GSK0660 + L-779450 | 107 | - | - | - | - | - | 88.9 | 90.5 | - | - | - | - | 110 | - |
| 40 | nutlin-3 + tipifarnib | 84.4 | 95.9 | 88.2 | 97.2 | 73.4 | 96.7 | 85.8 | 77.1 | 65.6 | 93.6 | 89.8 | 105 | 74.1 | - |

The first 5 entries again:

Drugs,A2058,IPC-298,G-361,COLO 792,LB2518-MEL,IST-MEL1,C32,A375,LOX IMVI,COLO 800,COLO 829,MEL-HO,A101D,501mel
MK-1775 + darinaparsin,89.2,-,-,-,-,-,108,39.8,-,-,-,-,65.4,-
erlotinib + SU6656,98.0,-,-,-,-,-,91.4,89.1,-,-,-,-,75.6,-
PD173074 + vorinostat,101,101,103,83.2,84.3,94.3,94.8,113,125,113,97.6,84.9,106,88.4
L-779450 + cisplatin,102,-,-,-,-,-,96.9,-,-,-,-,-,100,94.6
nilutamide + cisplatin,90.8,-,-,-,-,-,98.7,92.0,-,-,-,-,84.2,-

Values as published with doi:10.1371/journal.pone.0140310, rounded.